Assay results taken from paper PMC7872314, “Modeling Bioavailable Concentrations in Zebrafish Cell Lines and Embryos Increases the Correlation of Toxicity Potencies across Test Systems” (Environmental Science & Technology, 2020).
Like-named read-outs stand apart in the source and are kept apart here.

How the values were obtained:
[1] = tested on: ZF4 (fibroblasts) cell line; experiment: MTS assay (MTS/BCA multiplex), NAD(P)H metabolism; format: cell-based, zebrafish (Danio rerio); settings: Danio rerio, Fibroblast
[2] = tested on: ZFL (hepatocytes) cell line; experiment: cells; format: cell-based, zebrafish (Danio rerio); settings: Danio rerio, Hepatocyte
[3] = tested on: ZF4 (fibroblasts) cell line; experiment: BCA assay (MTS/BCA multiplex), protein amount; format: cell-based, zebrafish (Danio rerio); settings: Danio rerio, Fibroblast
[4] = tested on: ZFL (hepatocytes) cell line; experiment: cells; format: cell-based, zebrafish (Danio rerio); settings: Danio rerio, Hepatocyte; remark: listed apart in the source
[5] = tested on: ZF4 (fibroblasts) cell line; experiment: ATP assay (ATP/LDH multiplex), ATP metabolism; format: cell-based, zebrafish (Danio rerio); settings: Danio rerio, Fibroblast
[6] = tested on: ZFL (hepatocytes) cell line; experiment: cells; format: cell-based, zebrafish (Danio rerio); settings: Danio rerio, Hepatocyte; remark: listed apart in the source
[7] = tested on: ZF4 (fibroblasts) cell line; experiment: alamarBlue (AB) endpoint of AB/CFDA/NR multiplex, cellular respiration; format: cell-based, zebrafish (Danio rerio); settings: Danio rerio, Fibroblast
[8] = tested on: ZFL (hepatocytes) cell line; experiment: cells; format: cell-based, zebrafish (Danio rerio); settings: Danio rerio, Hepatocyte; remark: listed apart in the source
[9] = tested on: ZF4 (fibroblasts) cell line; experiment: CFDA endpoint of AB/CFDA/NR multiplex, membrane stability; format: cell-based, zebrafish (Danio rerio); settings: Danio rerio, Fibroblast
[10] = tested on: ZFL (hepatocytes) cell line; experiment: cells; format: cell-based, zebrafish (Danio rerio); settings: Danio rerio, Hepatocyte; remark: listed apart in the source
[11] = tested on: ZF4 (fibroblasts) cell line; experiment: Neutral red, absorbance (NRa), AB/CFDA/NR multiplex, lysosome stability; format: cell-based, zebrafish (Danio rerio); settings: Danio rerio, Fibroblast
[12] = tested on: ZFL (hepatocytes) cell line; experiment: cells; format: cell-based, zebrafish (Danio rerio); settings: Danio rerio, Hepatocyte; remark: listed apart in the source
[13] = tested on: ZF4 (fibroblasts) cell line; experiment: Neutral red, fluorescence (NRf), AB/CFDA/NR multiplex, lysosome stability; format: cell-based, zebrafish (Danio rerio); settings: Danio rerio, Fibroblast
[14] = tested on: ZFL (hepatocytes) cell line; experiment: cells; format: cell-based, zebrafish (Danio rerio); settings: Danio rerio, Hepatocyte; remark: listed apart in the source
ZF4 and ZFL cell lines = experiment: Cytotoxicity assays, all endpoints, both cell lines (mean/range); format: cell-based, zebrafish (Danio rerio); settings: 48 h
[15] = tested on: diverse mammalian cell assay results; parameters: method as in https://comptox.epa.gov/dashboard/; settings: COMPTOX; ref https://comptox.epa.gov/dashboard/; read-out: median AC50; cited from earlier work

COCC(=O)Nc1cc(Sc2ccccc2)ccc1N/C(=N\C(=O)OC)NC(=O)OC [Febantel, febantel]
IC50 ([1]; MTS - ZF4, log10 of IC50, read-out: LogIC50 (converted)): 63.1 µM | IC50 ([1]; MTS - ZF4, read-out: IC50): 63.1 µM | IC50 ([1]; ZF4, 48 h exposure, nominal, log10, read-out: logIC50 (log10 IC50;nom) MTS (converted)): 63.1 µM | IC50 ([1]; ZF4, 48 h exposure, nominal, read-out: IC50;nom MTS): 63.1 µM | IC50 [2]: 60.4 µM | IC50 ([2]; 48 h, read-out: IC50;nom MTS): 60.4 µM | IC50 ([2]; 48 h, read-out: logIC50 (log10 IC50 (converted);nom) MTS): 60.3 µM | IC50 ([2]; read-out: LogIC50 (converted)): 60.4 µM | IC50 ([3]; BCA - ZF4, log10 of IC50, read-out: LogIC50 (converted)): 390 µM | IC50 ([3]; BCA - ZF4, read-out: IC50): 390 µM | IC50 ([3]; ZF4, 48 h exposure, nominal, log10, read-out: logIC50 (log10 IC50;nom) BCA (converted)): 389 µM | IC50 ([3]; ZF4, 48 h exposure, nominal, read-out: IC50;nom BCA): 390 µM | IC50 [4]: 52.9 µM | IC50 ([4]; 48 h, read-out: IC50;nom BCA): 52.9 µM | IC50 ([4]; 48 h, read-out: logIC50 (log10 IC50 (converted);nom) BCA): 52.5 µM | IC50 ([4]; read-out: LogIC50 (converted)): 52.9 µM | IC50 ([5]; ATP - ZF4, log10 of IC50, read-out: LogIC50 (converted)): 35.9 µM | IC50 ([5]; ATP - ZF4, read-out: IC50): 35.9 µM | IC50 ([5]; ZF4, 48 h exposure, nominal, log10, read-out: logIC50 (log10 IC50;nom) ATP (converted)): 35.5 µM | IC50 ([5]; ZF4, 48 h exposure, nominal, read-out: IC50;nom ATP): 35.9 µM | IC50 [6]: 130 µM | IC50 ([6]; 48 h, read-out: IC50;nom ATP): 130 µM | IC50 ([6]; 48 h, read-out: logIC50 (log10 IC50 (converted);nom) ATP): 129 µM | IC50 ([6]; read-out: LogIC50 (converted)): 130 µM | IC50 ([7]; AB - ZF4, log10 of IC50, read-out: LogIC50 (converted)): 66.1 µM | IC50 ([7]; AB - ZF4, read-out: IC50): 66.1 µM | IC50 ([7]; ZF4, 48 h exposure, nominal, log10, read-out: logIC50 (log10 IC50;nom) AB (converted)): 66.1 µM | IC50 ([7]; ZF4, 48 h exposure, nominal, read-out: IC50;nom AB): 66.1 µM | IC50 [8]: 16.5 µM | IC50 ([8]; 48 h, read-out: IC50;nom AB): 16.5 µM | IC50 ([8]; 48 h, read-out: logIC50 (log10 IC50 (converted);nom) AB): 16.6 µM | IC50 ([8]; read-out: LogIC50 (converted)): 16.5 µM | IC50 ([9]; CFDA - ZF4, log10 of IC50, read-out: LogIC50 (converted)): 130 µM | IC50 ([9]; CFDA - ZF4, read-out: IC50): 130 µM | IC50 ([9]; ZF4, 48 h exposure, nominal, log10, read-out: logIC50 (log10 IC50;nom) CFDA (converted)): 129 µM | IC50 ([9]; ZF4, 48 h exposure, nominal, read-out: IC50;nom CFDA): 130 µM | IC50 [10]: 99 µM | IC50 ([10]; 48 h, read-out: IC50;nom CFDA): 99 µM | IC50 ([10]; 48 h, read-out: logIC50 (log10 IC50 (converted);nom) CFDA): 100 µM | IC50 ([10]; read-out: LogIC50 (converted)): 99 µM | IC50 ([11]; NR-abs - ZF4, log10 of IC50, read-out: LogIC50 (converted)): 37.6 µM | IC50 ([11]; NR-abs - ZF4, read-out: IC50): 37.6 µM | IC50 ([11]; ZF4, 48 h exposure, nominal, log10, read-out: logIC50 (log10 IC50;nom) NRa (converted)): 37.2 µM | IC50 ([11]; ZF4, 48 h exposure, nominal, read-out: IC50;nom NRa): 37.6 µM | IC50 ([11]; ZF4 cell line, NRa endpoint, nominal, read-out: IC50;nom): 16.8 µg/mL | IC50 [12]: 22.8 µM | IC50 ([12]; 48 h, read-out: IC50;nom NRa): 22.8 µM | IC50 ([12]; 48 h, read-out: logIC50 (log10 IC50 (converted);nom) NRa): 22.9 µM | IC50 ([12]; read-out: LogIC50 (converted)): 22.8 µM | IC50 ([13]; NR-fluo - ZF4, log10 of IC50, read-out: LogIC50 (converted)): 34.3 µM | IC50 ([13]; NR-fluo - ZF4, read-out: IC50): 34.3 µM | IC50 ([13]; ZF4, 48 h exposure, nominal, log10, read-out: logIC50 (log10 IC50;nom) NRf (converted)): 34.7 µM | IC50 ([13]; ZF4, 48 h exposure, nominal, read-out: IC50;nom NRf): 34.3 µM | IC50 [14]: 22.4 µM | IC50 ([14]; 48 h, read-out: IC50;nom NRf): 22.4 µM | IC50 ([14]; 48 h, read-out: logIC50 (log10 IC50 (converted);nom) NRf): 22.4 µM | IC50 ([14]; read-out: LogIC50 (converted)): 22.4 µM | IC50 (ZF4 and ZFL cell lines; Danio rerio, read-out: Mean log IC50nom, mean of all cytotoxicity endpoints (without LDH) in ZF4 and ZFL, 48 h, log10 (converted)): 56.2 µM | Mean log IC50nom (ZF4 and ZFL cell lines; mean of all cytotoxicity endpoints (without LDH) in ZF4 and ZFL, log10, listed as Feb): -4.248 M | AC50 [15]: 4.89 µM
